Experimental data taken from PMC9027364.
Results are given in words; binding and its absence hold for the method and conditions named. In cells and extracts the contact can be indirect. Some results given as binding are weak or reduced against the parent protein; the word gives no strength.

Protein sequences, listed by entry. Tags and fused reporters are not part of them. Residues count along the entry.
UniProt P03107: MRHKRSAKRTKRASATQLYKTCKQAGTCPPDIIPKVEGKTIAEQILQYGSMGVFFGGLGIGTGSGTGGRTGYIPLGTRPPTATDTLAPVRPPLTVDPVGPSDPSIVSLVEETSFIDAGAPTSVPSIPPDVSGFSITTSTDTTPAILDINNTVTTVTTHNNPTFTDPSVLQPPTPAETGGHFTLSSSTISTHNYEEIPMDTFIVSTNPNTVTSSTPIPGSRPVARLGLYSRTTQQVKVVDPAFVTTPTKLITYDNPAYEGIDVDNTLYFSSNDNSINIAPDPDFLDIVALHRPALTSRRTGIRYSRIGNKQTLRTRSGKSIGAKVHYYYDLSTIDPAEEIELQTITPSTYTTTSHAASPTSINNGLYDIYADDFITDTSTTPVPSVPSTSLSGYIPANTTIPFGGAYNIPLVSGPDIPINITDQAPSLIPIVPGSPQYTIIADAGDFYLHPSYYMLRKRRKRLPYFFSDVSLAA
UniProt Q9NZ42: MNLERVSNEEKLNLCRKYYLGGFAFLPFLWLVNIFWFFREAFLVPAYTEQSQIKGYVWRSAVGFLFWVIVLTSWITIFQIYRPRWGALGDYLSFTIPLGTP
UniProt Q92542, residues 34-709: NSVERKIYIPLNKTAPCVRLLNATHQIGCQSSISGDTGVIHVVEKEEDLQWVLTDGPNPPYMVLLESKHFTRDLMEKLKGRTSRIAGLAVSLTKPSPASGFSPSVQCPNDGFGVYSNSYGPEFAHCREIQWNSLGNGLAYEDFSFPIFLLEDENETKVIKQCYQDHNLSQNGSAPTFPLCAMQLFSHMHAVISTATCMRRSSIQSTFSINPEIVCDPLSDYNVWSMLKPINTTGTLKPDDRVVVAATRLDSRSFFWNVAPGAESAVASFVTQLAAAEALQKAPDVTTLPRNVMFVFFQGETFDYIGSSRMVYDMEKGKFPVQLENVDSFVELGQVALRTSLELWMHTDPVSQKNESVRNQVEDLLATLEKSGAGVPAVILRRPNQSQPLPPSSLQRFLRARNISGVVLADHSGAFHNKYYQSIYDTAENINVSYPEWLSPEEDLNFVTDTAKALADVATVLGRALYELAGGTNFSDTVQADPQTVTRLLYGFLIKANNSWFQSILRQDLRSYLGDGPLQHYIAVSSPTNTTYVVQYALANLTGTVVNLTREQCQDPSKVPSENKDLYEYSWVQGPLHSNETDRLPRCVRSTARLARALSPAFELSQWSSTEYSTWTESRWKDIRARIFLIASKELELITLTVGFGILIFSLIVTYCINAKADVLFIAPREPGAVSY

Target: HPV16 L2 minor capsid protein, wild type, with three tandem FLAG tags at the C-terminus (in HPV16 PsV) (human papillomavirus type 16) (UniProt P03107)
Assay: co-IP

Substance | binding
PEN2, subunit of γ-secretase (from UniProt Q9NZ42 1-101) | binds
nicastrin (NCT), subunit of γ-secretase (from UniProt Q92542 34-709) | binds
